Assay results published in the supplement of paper PMC6078165.

Tested on: HCC1143
Test: relative JC-1 red fluorescence (viability) vs pre-drug, coculture with fibroblast (fraction); higher = more viable cancer cells
Protocol: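 JC-1 labelled TNBC cells cocultured 1:1 (1,500 cells each) with CellTrace Violet stained primary or stromal fibroblasts in 384-well plates in FluoroBrite medium, treated with one of 42 anticancer drugs at 0.1, 1, 10 or 100 uM. JC-1 red fluorescence (mitochondrial integrity in cancer cells only) was read by plate reader every 8 h for 72 h. Values are normalised to each well's pre-drug value. The stock of one drug was tenfold lower, so its dose labels may be too high.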

CC(C)(C#N)c1cc(Cn2cncn2)cc(C(C)(C)C#N)c1 [Anastrozole]
relative JC-1 red fluorescence
Settings	8 h	16 h	24 h	32 h	40 h	48 h	56 h	64 h	72 h
0.1 µM, coculture fibroblast: C12385	0.849 ± 0.022	0.736 ± 0.023	0.674 ± 0.051	0.602 ± 0.056	0.536 ± 0.052	0.486 ± 0.055	0.442 ± 0.053	0.397 ± 0.055	0.374 ± 0.05
0.1 µM, coculture fibroblast: H6013	0.76 ± 0.038	0.684 ± 0.059	0.637 ± 0.063	0.613 ± 0.065	0.553 ± 0.084	0.55 ± 0.085	0.51 ± 0.083	0.491 ± 0.081	0.446 ± 0.065
0.1 µM, coculture fibroblast: H6019	0.791 ± 0.046	0.706 ± 0.081	0.653 ± 0.1	0.586 ± 0.12	0.532 ± 0.13	0.501 ± 0.15	0.446 ± 0.14	0.402 ± 0.14	0.368 ± 0.13
0.1 µM, coculture fibroblast: H6076	0.81 ± 0.043	0.833 ± 0.064	0.798 ± 0.081	0.756 ± 0.099	0.708 ± 0.12	0.695 ± 0.13	0.674 ± 0.17	0.657 ± 0.18	0.673 ± 0.18
0.1 µM, coculture fibroblast: H6231	0.837 ± 0.016	0.799 ± 0.033	0.728 ± 0.021	0.659 ± 0.018	0.623 ± 0.028	0.6 ± 0.026	0.554 ± 0.029	0.522 ± 0.024	0.499 ± 0.021
0.1 µM, coculture fibroblast: HADF	0.7528 ± 0.0037	0.687 ± 0.031	0.656 ± 0.04	0.646 ± 0.047	0.546 ± 0.033	0.517 ± 0.017	0.48 ± 0.021	0.448 ± 0.021	0.429 ± 0.025
0.1 µM, coculture fibroblast: HCFa	0.7583 ± 0.0071	0.677 ± 0.017	0.6249 ± 0.0053	0.5913 ± 0.0029	0.506 ± 0.0099	0.487 ± 0.008	0.439 ± 0.01	0.398 ± 0.0081	0.366 ± 0.0079
0.1 µM, coculture fibroblast: HCPF	0.793 ± 0.0098	0.782 ± 0.014	0.705 ± 0.0013	0.623 ± 0.026	0.61 ± 0.014	0.57283 ± 0.00014	0.5292 ± 0.0021	0.498 ± 0.0019	0.4825 ± 0.00086
0.1 µM, coculture fibroblast: HHSteC	0.813 ± 0.021	0.767 ± 0.045	0.73 ± 0.06	0.696 ± 0.079	0.629 ± 0.082	0.612 ± 0.085	0.571 ± 0.087	0.527 ± 0.084	0.478 ± 0.09
0.1 µM, coculture fibroblast: HMF	0.792 ± 0.011	0.814 ± 0.028	0.74 ± 0.018	0.641 ± 0.0029	0.621 ± 0.019	0.582 ± 0.025	0.54 ± 0.016	0.497 ± 0.023	0.468 ± 0.016
0.1 µM, coculture fibroblast: HPFa	0.8851 ± 0.0068	0.77358 ± 0.00056	0.7357 ± 0.0064	0.643 ± 0.0098	0.579 ± 0.0084	0.53123 ± 0.00028	0.4605 ± 9.8e-05	0.4001 ± 0.0034	0.359 ± 0.0041
0.1 µM, coculture fibroblast: HUF	0.86 ± 0.02	0.777 ± 0.026	0.721 ± 0.021	0.642 ± 0.025	0.583 ± 0.037	0.544 ± 0.033	0.488 ± 0.034	0.447 ± 0.037	0.423 ± 0.033
0.1 µM, coculture fibroblast: Hs5	0.8195 ± 0.00089	0.828 ± 0.028	0.773 ± 0.028	0.74 ± 0.023	0.67 ± 0.021	0.639 ± 0.018	0.608 ± 0.016	0.575 ± 0.014	0.572 ± 0.0096
0.1 µM, coculture fibroblast: Hs27A	0.702 ± 0.018	0.598 ± 0.018	0.551 ± 0.021	0.553 ± 0.019	0.416 ± 0.018	0.386 ± 0.014	0.34 ± 0.013	0.31 ± 0.014	0.299 ± 0.021
0.1 µM, coculture fibroblast: Hs343T	0.806 ± 0.044	0.782 ± 0.054	0.846 ± 0.16	0.735 ± 0.16	0.766 ± 0.24	0.739 ± 0.26	0.677 ± 0.24	0.646 ± 0.23	0.613 ± 0.23
0.1 µM, coculture fibroblast: WS1	0.802 ± 0.023	0.74 ± 0.013	0.7028 ± 0.0039	0.635 ± 0.0092	0.583 ± 0.0071	0.543 ± 0.007	0.499 ± 0.013	0.464 ± 0.025	0.443 ± 0.014
1 µM, coculture fibroblast: C12385	0.86 ± 0.065	0.802 ± 0.11	0.795 ± 0.24	0.792 ± 0.28	0.748 ± 0.31	0.737 ± 0.32	0.711 ± 0.34	0.684 ± 0.35	0.685 ± 0.36
1 µM, coculture fibroblast: H6013	0.758 ± 0.015	0.667 ± 0.023	0.627 ± 0.029	0.61 ± 0.024	0.538 ± 0.024	0.531 ± 0.036	0.493 ± 0.03	0.479 ± 0.039	0.431 ± 0.018
1 µM, coculture fibroblast: H6019	0.832 ± 0.045	0.761 ± 0.05	0.737 ± 0.05	0.679 ± 0.047	0.64 ± 0.046	0.626 ± 0.048	0.588 ± 0.051	0.553 ± 0.049	0.515 ± 0.056
1 µM, coculture fibroblast: H6076	0.7908 ± 0.0078	0.79 ± 0.036	0.726 ± 0.018	0.67 ± 0.011	0.6274 ± 0.001	0.6057 ± 0.0015	0.56046 ± 2.8e-05	0.535 ± 0.006	0.527 ± 0.0083
1 µM, coculture fibroblast: H6231	0.7714 ± 0.0012	0.769 ± 0.018	0.666 ± 0.013	0.566 ± 0.012	0.5771 ± 0.005	0.5387 ± 0.0017	0.496 ± 0.013	0.459 ± 0.012	0.425 ± 0.006
1 µM, coculture fibroblast: HADF	0.7558 ± 0.0021	0.692 ± 0.011	0.648 ± 0.0083	0.6485 ± 0.0017	0.561 ± 0.0072	0.542 ± 0.0099	0.5094 ± 0.0048	0.483 ± 0.0093	0.457 ± 0.011
1 µM, coculture fibroblast: HCFa	0.7703 ± 0.0049	0.6446 ± 0.0051	0.618 ± 0.016	0.602 ± 0.036	0.503 ± 0.039	0.475 ± 0.034	0.427 ± 0.04	0.392 ± 0.043	0.356 ± 0.051
1 µM, coculture fibroblast: HCPF	0.8111 ± 0.0081	0.791 ± 0.05	0.746 ± 0.055	0.664 ± 0.016	0.663 ± 0.06	0.642 ± 0.058	0.596 ± 0.058	0.562 ± 0.057	0.545 ± 0.05
1 µM, coculture fibroblast: HHSteC	0.883 ± 0.01	0.805 ± 0.018	0.7862 ± 0.0054	0.76243 ± 0.00042	0.699 ± 0.014	0.676 ± 0.032	0.632 ± 0.029	0.606 ± 0.033	0.555 ± 0.011
1 µM, coculture fibroblast: HMF	0.8009 ± 0.0046	0.797 ± 0.017	0.742 ± 0.017	0.656 ± 0.029	0.639 ± 0.031	0.606 ± 0.043	0.548 ± 0.041	0.514 ± 0.042	0.494 ± 0.044
1 µM, coculture fibroblast: HPFa	0.912 ± 0.046	0.813 ± 0.062	0.766 ± 0.052	0.696 ± 0.061	0.615 ± 0.056	0.575 ± 0.053	0.508 ± 0.059	0.459 ± 0.061	0.415 ± 0.058
1 µM, coculture fibroblast: HUF	0.9 ± 0.034	0.825 ± 0.047	0.762 ± 0.057	0.684 ± 0.058	0.626 ± 0.055	0.582 ± 0.049	0.519 ± 0.037	0.481 ± 0.029	0.444 ± 0.026
1 µM, coculture fibroblast: Hs5	0.83 ± 0.016	0.862 ± 0.011	0.7929 ± 0.0025	0.7302 ± 0.0009	0.6782 ± 0.0011	0.641 ± 0.007	0.5973 ± 0.00093	0.562 ± 0.012	0.539 ± 0.0086
1 µM, coculture fibroblast: Hs27A	0.7418 ± 0.0044	0.67371 ± 0.00037	0.6513 ± 0.0047	0.679 ± 0.011	0.5818 ± 0.0035	0.58 ± 0.0063	0.536 ± 0.0081	0.504 ± 0.012	0.462 ± 0.007
1 µM, coculture fibroblast: Hs343T	0.803 ± 0.0069	0.8 ± 0.047	0.74 ± 0.067	0.673 ± 0.057	0.633 ± 0.08	0.595 ± 0.079	0.543 ± 0.089	0.516 ± 0.1	0.492 ± 0.1
1 µM, coculture fibroblast: WS1	0.824 ± 0.013	0.7049 ± 0.0068	0.661 ± 0.012	0.584 ± 0.019	0.518 ± 0.022	0.482 ± 0.029	0.443 ± 0.031	0.411 ± 0.034	0.394 ± 0.044

± gives the standard deviation of the averaged measurements. Values are relative to the signal before dosing, not to a vehicle control; the signal also falls without drug.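 Fibroblast labels denote human fibroblasts, mainly primary ones from uterus (C12385, HUF), lung (H6013), bone (Hs27A), adrenal (HADF) and skin (WS1), plus mammary HMF and breast cancer-associated Hs343T. Cancer cells are basal-like or mesenchymal-like triple-negative breast cancer lines. A hit is a response shift exceeding 3x replicate standard deviation. The tissue of the other fibroblasts is not given here.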
